From US20140322233A1
These are yes or no findings as the source states them, for the method shown. Some binding calls cover weakened binding; strength is not graded here.

T1: GCC array peptides 55, 56 and 57 (sequence spanned: SEQ ID NO:225) (human)
T1 sequence (peptide): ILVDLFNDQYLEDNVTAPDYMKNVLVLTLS


molecular target: T1, GCC array peptides 55, 56 and 57 (sequence spanned: SEQ ID NO:225) (human); test: array of 20-mer GCC peptides on glass slides

Binder	binding
mAb Abx-198 (antibody, IgG1, V domains shown) VH: EVQLLESGGGLVQPGGSLRLSCAASGFTFSSYAMSWVRQAPGKGLDWVSDISGSGGSTYYADSVKGRFTISRDNSKNTLYLQMHSLSAEDTAIYYCAKRRWQGYFDLWGRGTLVTVSS VL: EIVLTQSPGTLSLSPGERATLSCRARQRVDSRYLAWYQQKPGQAPRLLIYGASSRATGIPDRFSGSGSGTDFTLTISRLEPEDFAVYYCQQYGSSPLTFGGGTKVEIK	binds
mAb 3G1 (antibody, IgG1, V domains shown) VH: QVQLKESGPGLVAPSQSLSITCTVSGFSLSRNAISWVRQPPGKGLEWLGVIWTGGGTNYNSALKSRLSIRKENSKSQVFLKMNSLQTEDTARYFCARSGYDGFDYWGQGTLVTVSA VL: QIVLTQSPAIMSASPGEKVTMTCSASSSVNYMHWYQQKSGTSPKRWIYDTSKLASGVPARFSGSGSGTSYSLTITSMEAEDAATYYCQQWSGNPYTFGGGTKLEIK	binds
mAb 8F1 (antibody, IgG1, V domains shown) VH: QVQLQQPGAELVKPGASVQMSCKASGYIFTGYWMYWVKQRPGQGLEWIGRIHPSDSNTNYNQKFKGKATLTVDKSSSTAYMQLSSLTSEDSAVYYCTHALAYWGQGTLVTVS VL: DVVLTQTPLTLSITIGQPASISCKSSQSLLYSNGKTYLSWLLQRPGQSPKRLIYLVSQLDSGVPDRFTGSGSGTDFTLKISRVEAEDLGVYYCVQGTHLFTFGSGTKLEIK	binds
